# Results deposited as PubChem BioAssay AID652272 (Drosophila RNAi Screening Center, 2013).
# Aim: 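Genome-wide knock-down search for components of Hedgehog signalling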 (primary screen)
# Cells: Drosophila clone 8 (Cl8) cells
# Reagents: long dsRNA against Drosophila genes
# Read-out: 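Plate reader light from a firefly reporter under a ptc promoter fragment that responds to Hedgehog, with Renilla light as transfection reference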
# Direction: firefly Hh reporter signal: higher = more ptc reporter light; Renilla reference signal: higher = more Renilla control light
# Rule for the call: 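Hit when the z-score averaged over two replicates is under -2 or over +3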
# Calls: active = hit: reporter lowered or raised; inactive = not a hit
# The screen tested about 21,000 reagents; below is an unselected part of those that have a named target and a result. In the full data, 503 (2.4%) were called active. 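Raw plate light values, not normalised; calls rest on replicate z-scores that were not deposited; hits include reporter decreases as well as increases.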 No sequences are given here. Not given: the amount of reagent, the time to read-out.
The opening 7 entries as a preview:
gene,amplicon,"firefly Hh reporter signal, replicate 1","firefly Hh reporter signal, replicate 2","firefly Hh reporter signal, replicate 3","Renilla reference signal, replicate 1","Renilla reference signal, replicate 2",activity call
ci (GeneID 43767),DRSC17172,16708,30038,,2421,7725,active
CG9192 (GeneID 38134),DRSC08639,53349,48296,,1556,3062,inactive
CG16853 (GeneID 34771),DRSC01877,75482,41649,,2105,3824,inactive
CG15650 (GeneID 37373),DRSC04241,85754,38441,,2164,3468,inactive
CG33252 (GeneID 2768903),DRSC19162,8.29e5,2.46e5,,47024,6327,inactive
E5 (GeneID 45396),DRSC13000,22650,1.71e5,,784,3830,inactive
E5 (GeneID 45396),DRSC16585,32890,14288,,1590,725,active

Results, from the first entry:
gene,amplicon,"firefly Hh reporter signal, replicate 1","firefly Hh reporter signal, replicate 2","firefly Hh reporter signal, replicate 3","Renilla reference signal, replicate 1","Renilla reference signal, replicate 2",activity call
ci (GeneID 43767),DRSC17172,16708,30038,,2421,7725,active
CG9192 (GeneID 38134),DRSC08639,53349,48296,,1556,3062,inactive
CG16853 (GeneID 34771),DRSC01877,75482,41649,,2105,3824,inactive
CG15650 (GeneID 37373),DRSC04241,85754,38441,,2164,3468,inactive
CG33252 (GeneID 2768903),DRSC19162,8.29e5,2.46e5,,47024,6327,inactive
E5 (GeneID 45396),DRSC13000,22650,1.71e5,,784,3830,inactive
E5 (GeneID 45396),DRSC16585,32890,14288,,1590,725,active
SuUR (GeneID 45739),DRSC11292,71981,70498,69858,5520,5031,inactive
CG6695 (GeneID 42937),DRSC16098,95590,86135,,3928,3529,inactive
Nca (GeneID 40186),DRSC11233,1.45e5,2.23e5,,4418,5864,inactive
Osi18 (GeneID 40775),DRSC12181,55975,85862,,1766,2536,inactive
Pbgs (GeneID 39402),DRSC09718,31927,44548,51360,4204,3265,inactive
CG15930 (GeneID 31446),DRSC18107,62992,1.92e5,,1770,7745,inactive
CG4743 (GeneID 43101),DRSC15636,4.83e5,1.03e5,,24553,3169,inactive
HP6 (GeneID 33661),DRSC00471,66698,25267,,2105,3477,inactive
aqrs (GeneID 43396),DRSC14724,87457,1.14e5,,2972,2666,inactive
dgt3 (GeneID 37377),DRSC04349,70978,59206,,3296,2139,inactive
CG15128 (GeneID 37263),DRSC06550,97589,47024,,2596,3155,inactive
Hsp60C (GeneID 33796),DRSC03036,67146,29520,,1330,3372,inactive
Cp190 (GeneID 41848),DRSC16607,80613,98840,,3072,3865,inactive
Rpp25 (GeneID 35574),DRSC05002,1.35e5,83121,,3329,4327,inactive
Or59c (GeneID 37716),DRSC04633,68680,45937,,1930,3981,inactive
Nle (GeneID 33234),DRSC00763,1.36e5,1.12e5,,3158,2600,inactive
Cog2 (GeneID 41870),DRSC16987,60996,86760,,1476,1867,inactive
scrib (GeneID 44448),DRSC13774,48341,1.80e5,,12897,4812,inactive
scrib (GeneID 44448),DRSC13775,50900,1.48e5,,13953,4295,inactive
scrib (GeneID 44448),DRSC15809,68934,74345,,2112,2609,inactive
scrib (GeneID 44448),DRSC17051,81938,98658,,1819,2236,inactive
Invadolysin (GeneID 49580),DRSC15527,83899,94080,,2454,3146,inactive
PH4alphaSG2 (GeneID 43623),DRSC15037,66970,70113,,1026,1896,inactive
CG13814 (retired record) (GeneID 40223),DRSC10069,1.04e5,1.41e5,,3527,4611,inactive
CG1575 (GeneID 31731),DRSC18069,89389,75204,,2528,1873,inactive
CG34008 (GeneID 3885577),DRSC13428,55127,2.16e5,,12000,5204,inactive
Keap1 (GeneID 42062),DRSC15528,1.10e5,77937,,4938,3349,inactive
CG3744 (GeneID 42972),DRSC15511,5.50e5,1.09e5,,30461,3488,inactive
CG43322 (GeneID 33984),DRSC02280,91813,47387,,2372,4336,inactive
Alg11 (GeneID 40402),DRSC11647,1.57e5,1.77e5,,5597,6388,inactive
Wnt6 (GeneID 34010),DRSC02795,1.76e5,81320,,5313,7321,inactive
CG3163 (GeneID 37836),DRSC04341,1.00e5,1.02e5,,3876,4029,inactive
Tudor-SN (GeneID 38045),DRSC08581,70716,76154,,3299,2899,inactive
pths (GeneID 35379),DRSC03171,55539,32114,,2121,3673,inactive
CG15382 (GeneID 33391),DRSC00397,78121,80310,,2176,1597,inactive
CG6664 (GeneID 39903),DRSC10690,78689,99713,,3533,4192,inactive
CG6901 (GeneID 41977),DRSC16129,1.14e5,89995,,1538,2137,inactive
eIF3f2 (GeneID 35547),DRSC04903,1.05e5,49722,,1888,4827,inactive
CG11396 (GeneID 40296),DRSC11654,89101,98790,,3538,3400,inactive
Ist1 (GeneID 38750),DRSC09697,84213,1.05e5,,3173,3699,inactive
LysS (GeneID 38130),DRSC08677,62536,45261,,2465,3346,inactive
CG42271 (GeneID 2768892),DRSC19809,1.08e5,88362,,2595,2176,inactive
CG32221 (GeneID 317924),DRSC09638,2.49e5,,,5001,,inactive
Hex-t1 (GeneID 117364),DRSC16701,5.78e5,88592,,27927,427,inactive
Sirt4 (GeneID 31480),DRSC18290,72093,1.44e5,,2380,5752,inactive
TbCMF46 (GeneID 34318),DRSC02221,85536,41024,,2219,3409,inactive
Vajk2 (GeneID 34811),DRSC02540,1.50e5,76950,,4189,7712,inactive
CG8028 (GeneID 32923),DRSC20075,1.34e5,1.78e5,,5382,7872,inactive
CG12236 (GeneID 31523),DRSC17830,27364,37074,,641,1042,inactive
CG12236 (GeneID 31523),DRSC17831,70512,1.62e5,,1749,6868,inactive
